Assay results as given in the supplement of paper PMC3047530.
This is one part of the list. Single values are uncertain, as repeats are few or missing.

Tested on: Geomyces destructans
Test: growth inhibition relative to DMSO control; higher = stronger growth inhibition
Details: 10 µM; 15 °C; incubation time 10 days

Q: CC[C@@H](CO)NC(=O)[C@@H]1C=C2c3cccc4[nH]cc(c34)C[C@H]2N(C)C1 was tested. Which growth inhibition did it give?
A: -37%

Q: CCCCOC(=O)c1ccccc1C(=O)OCCCC was tested. Which growth inhibition did it give?
A: 9.48%

Q: How did the growth inhibition turn out when COC(=O)C=C(C)OP(=O)(OC)OC was run?
A: -3.78%

Q: Which growth inhibition does the source give for CCC(C)C(=O)OC1CC2(C)C(c3ccoc3)OC(=O)CC23OC2(C)OC34C(OC(=O)C(C)C)C3(O)C(OC(=O)C5(C)OC5C)C5(C)CC3(O)C(C)(C5CC(=O)OC)C14O2 (configuration not stated) here?
A: -8.54%

Q: For C=CCc1cc(OC)c2c(c1OC)OCO2, which growth inhibition is on record?
A: -7.68%

Q: With c1cncc([C@@H]2CCCCN2)c1 as the compound, how does the growth inhibition read?
A: -2.02%

Q: Which growth inhibition does the source give for CC(C)(O)[C@@H]1[C@H]2OC(=O)[C@@H]1[C@]1(O)C[C@H]3O[C@]34C(=O)O[C@H]2[C@]14C here?
A: -6.07%

Q: For CC(C)(C#N)O[C@@H]1O[C@H](CO)[C@@H](O)[C@H](O)[C@H]1O, which growth inhibition is on record?
A: -4.71%

Q: How did the growth inhibition turn out when C=C(C)[C@H]1Cc2c(ccc3c(=O)c4c(oc23)COc2cc(OC)c(OC)cc2-4)O1 was run?
A: 8.58%

Q: For Clc1ccc(Cl)cc1, which growth inhibition is on record?
A: -8.51%

Q: Which growth inhibition does the source give for CN[C@@H]1[C@@H](O)[C@@H](O[C@@H]2[C@@H](O)[C@H](O[C@H]3O[C@H](CN)CC[C@H]3N)[C@@H](N)C[C@H]2N)OC[C@]1(C)O.CN[C@@H]1[C@@H](O)[C@@H](O[C@@H]2[C@@H](O)[C@H](O[C@H]3O[C@H]([C@@H](C)N)CC[C@H]3N)[C@@H](N)C[C@H]2N)OC[C@]1(C)O.CN[C@@H]1[C@@H](O)[C@@H](O[C@@H]2[C@@H](O)[C@H](O[C@H]3O[C@H]([C@@H](C)NC)CC[C@H]3N)[C@@H](N)C[C@H]2N)OC[C@]1(C)O here?
A: -2.05%

Q: With COc1ccc2c(c1O)-c1c(OC)c(OC)cc3c1[C@H](C2)N(C)CC3 as the compound, how does the growth inhibition read?
A: -6.04%

Q: NC(=O)c1cc([N+](=O)[O-])cc([N+](=O)[O-])c1 was tested. Which growth inhibition did it give?
A: -15.8%

Q: O=C1CC[C@@]2(O)[C@H]3Cc4ccc(O)c5c4[C@@]2(CCN3CC2CC2)[C@H]1O5 was tested. Which growth inhibition did it give?
A: -5.04%

Q: For CC(=O)[C@H]1CC[C@H]2[C@@H]3CC[C@H]4C[C@H](O)CC[C@]4(C)[C@H]3CC[C@]12C, which growth inhibition is on record?
A: 2.99%

Q: CCOC(=O)CC(SP(=S)(OC)OC)C(=O)OCC (configuration not stated) was tested. Which growth inhibition did it give?
A: -10.6%

Q: Which growth inhibition does the source give for NCC(CC(=O)O)c1ccc(Cl)cc1 (configuration not stated) here?
A: -25.6%

Q: Which growth inhibition does the source give for CC(NC(C)(C)C)C(=O)c1cccc(Cl)c1 (configuration not stated) here?
A: 2.03%

Q: For C[C@@H]1O[C@@H](O[C@H]2CC[C@]3(C=O)[C@H]4CC[C@]5(C)[C@@H](C6=CC(=O)OC6)CC[C@]5(O)[C@@H]4CC[C@]3(O)C2)[C@H](O)[C@H](O)[C@H]1O, which growth inhibition is on record?
A: -18.3%

Q: Which growth inhibition does the source give for CN1[C@@H]2C[C@@H](OC(=O)[C@H](CO)c3ccccc3)C[C@H]1[C@@H]1O[C@@H]12 here?
A: 0.89%

Q: How did the growth inhibition turn out when CC1(C)C2CC(=O)[C@]3(C)C(CC[C@@]4(C)[C@H](c5ccoc5)OC(=O)C5OC543)[C@@]2(C)[C@@H](O)C[C@H]1O (some centres not stated) was run?
A: 1.97%

Q: How did the growth inhibition turn out when ClC(Cl)=C(c1ccc(Cl)cc1)c1ccc(Cl)cc1 was run?
A: 2.92%

Q: CCOC(=O)C1C(C=C(C)C)C1(C)C (configuration not stated) was tested. Which growth inhibition did it give?
A: 0.578%

Q: With CCOP(=S)(OCC)SCSCC as the compound, how does the growth inhibition read?
A: -5.61%

Q: For CCC1C2CC3C4N(C)c5ccccc5C45CC(C2C5OC(C)=O)N3C1OC(C)=O (configuration not stated), which growth inhibition is on record?
A: -14.9%

Q: Which growth inhibition does the source give for CCC(C)C(=O)O[C@@H]1C[C@@]2(C)[C@H](c3ccoc3)OC(=O)CC23OC2(C)O[C@]14[C@]1(C)[C@@H](CC(=O)OC)C5(C)CC1(O)[C@](O)(C5OC(=O)C1(C)OC1C)[C@@H](OC(C)=O)[C@]34O2 (some centres not stated) here?
A: -4.75%

Q: For N[C@@H]1C[C@H]1c1ccccc1, which growth inhibition is on record?
A: -42.3%

Q: Which growth inhibition does the source give for NNCc1cccc(O)c1 here?
A: 4.37%

Q: Which growth inhibition does the source give for [O-][n+]1ccccc1[S-].[O-][n+]1ccccc1[S-].[Zn+2] here?
A: 81.1%

Q: Cc1ccc2cc3c(ccc4ccccc43)c3c2c1CC3 was tested. Which growth inhibition did it give?
A: -25.2%

Q: For C[C@@H]1C(=O)O[C@H]2[C@H]1CC[C@@]1(C)C=CC(=O)[C@@]3(C)O[C@@]213 [EPOXY (4,5alpha)-4,5-DIHYDROSANTONIN], which growth inhibition is on record?
A: -24.9%

Q: With C=CCN1CC[C@]23c4c5ccc(O)c4O[C@H]2C(=O)CC[C@@]3(O)[C@H]1C5 as the compound, how does the growth inhibition read?
A: 0.28%

Q: C=CCc1ccc2c(c1)OCO2 was tested. Which growth inhibition did it give?
A: 3.28%

Q: For CCCC(C)C1(CC)C(=O)NC(=O)NC1=O (configuration not stated), which growth inhibition is on record?
A: -13.9%

Q: With C=C1C([C@]2(C)C(CC(=O)OC)[C@@](C)(COC(C)=O)OC(=O)C[C@@H]2OC(C)=O)[C@@H](OC=O)[C@H](OC(=O)C(OC(C)=O)C(C)CC)[C@@]2(C)[C@H](c3ccoc3)CC(=O)C12O (some centres not stated) as the compound, how does the growth inhibition read?
A: -4.75%

Q: How did the growth inhibition turn out when COP(=O)(OC)OC=C(Cl)Cl was run?
A: -6.68%

Q: For C[C@H]1CC[C@]2(NC1)O[C@H]1C[C@H]3[C@@H]4CC[C@H]5C[C@@H](O)CC[C@]5(C)[C@H]4CC[C@]3(C)[C@H]1[C@@H]2C, which growth inhibition is on record?
A: -2.54%

Q: S=C=NCc1ccccc1 was tested. Which growth inhibition did it give?
A: -41%

Q: With C[C@]12CCC(=O)C=C1C=C[C@@H]1[C@@H]2CC[C@@]2(C)[C@H]1CC[C@@]2(O)CCC(=O)O as the compound, how does the growth inhibition read?
A: -7.38%

Q: Which growth inhibition does the source give for CCOP(=S)(OCC)SCn1c(=O)oc2cc(Cl)ccc21 here?
A: -5.61%

Q: With CCNc1nc(Cl)nc(NCC)n1 as the compound, how does the growth inhibition read?
A: 1.4%

Q: O=C(O)COc1ccc(Cl)cc1Cl was tested. Which growth inhibition did it give?
A: -9.12%

Q: CO[C@H]1[C@H](O)[C@H](O[C@H]2CC[C@@]3(C=O)[C@H](CC[C@@H]4[C@@H]3CC[C@]3(C)[C@@H](C5=CC(=O)OC5)CC[C@]43O)C2)O[C@@H](C)[C@@H]1O was tested. Which growth inhibition did it give?
A: -32%

Q: How did the growth inhibition turn out when CC[C@@H](C(=O)[C@@H](C)[C@@H](O)[C@H](C)[C@@H]1O[C@@H]([C@@H](CC)C(=O)O)CC[C@@H]1C)[C@H]1O[C@]2(C=C[C@@H](O)[C@]3(CC[C@@](C)([C@H]4CC[C@](O)(CC)[C@H](C)O4)O3)O2)[C@H](C)C[C@@H]1C was run?
A: -8.96%

Q: Which growth inhibition does the source give for CC(=O)O[C@@H]1[C@H]2CC[C@H]3[C@@](C)(O)[C@@H]4C[C@H](O)C(C)(C)[C@@]4(O)[C@H](O)C[C@@]13C[C@@]2(C)O here?
A: -6.22%

Q: Which growth inhibition does the source give for COc1cc2c3cc1Oc1c(OC)c(OC)cc4c1[C@@H](Cc1cccc(c1)Oc1ccc(c(O)c1)C[C@@H]3N(C)CC2)N(C)CC4 here?
A: -4.24%

Q: O=c1ccc2cc(O[C@@H]3O[C@H](CO)[C@@H](O)[C@H](O)[C@H]3O)c(O)cc2o1 was tested. Which growth inhibition did it give?
A: -12.9%

Q: For COP(=O)(NC(C)=O)SC (configuration not stated), which growth inhibition is on record?
A: -5%

Q: How did the growth inhibition turn out when NCC(O)c1ccc(O)cc1 (configuration not stated) was run?
A: 1.57%

Q: With O=c1c2ccccc2[se]n1-c1ccccc1 as the compound, how does the growth inhibition read?
A: -36.7%

Q: With C[C@]12CC[C@H]3[C@@H](CCC4=CC(=O)CC[C@@]43C)[C@@H]1CC[C@@H]2O as the compound, how does the growth inhibition read?
A: -27.8%

Q: With N=C(NCCC[C@H](N)C(=O)O)N[N+](=O)[O-] as the compound, how does the growth inhibition read?
A: -15.9%

Q: For C[C@]12CCC(=O)C[C@@H]1CC[C@@H]1[C@@H]2CC[C@]2(C)C(=O)CC[C@@H]12 [5alpha-ANDROSTAN-3,17-DIONE], which growth inhibition is on record?
A: -3.3%

Q: For C[C@]12CC[C@H](O)C[C@H]1CC[C@@H]1[C@@H]2CC[C@]2(C)[C@@H](C3=CC(=O)OC3)[C@@H](O)C[C@]12O, which growth inhibition is on record?
A: 5.43%

Q: CNC(=O)CSP(=S)(OC)OC was tested. Which growth inhibition did it give?
A: -7.29%

Q: CCNc1nc(Cl)nc(NC(C)C)n1 was tested. Which growth inhibition did it give?
A: -8.81%

Q: How did the growth inhibition turn out when COc1c2c(cc3c1OCO3)CCN(C)C2 was run?
A: -6.26%
